Values from PubChem BioAssay AID652243 (Drosophila RNAi Screening Center, 2013).
In all, the deposit lists about 24,000 reagents; below is a random part of those with a known target gene and a result. Over the whole deposit, 246 (1%) got an active call. 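Plates not normalised; calls are printed but the firefly/Renilla ratio behind them is not deposited; fold cut for lowering reported inconsistently.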 Raw values are not corrected between plates. Reagents against one gene are numbered here. A plus sign joins genes that one reagent is predicted to hit. Not given: the amount of reagent.

Screen: 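Fly regulators of androgen-dependent reporter output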 (primary screen)
Cells: Drosophila S2R+ cells
Reagents: long dsRNA against Drosophila genes
Time to read-out: 72 h (48 h, then 24 h hormone)
Treatment: synthetic androgen R1881 at 10 nM for 24 h
Measured: 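Firefly light from an androgen-responsive reporter and Renilla control light per well, raw and unnormalised, for each of two replicates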
Direction: firefly reporter light: higher = more light from androgen-responsive reporter; Renilla control light: higher = more constitutive control signal (cell number, transfection)
Active means: 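Hit when the log firefly-to-Renilla ratio dropped or increased by a fixed fold versus the mean of GFP or LacZ controls across duplicate plates; lowering cut given as 1.5 and as 3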
Meaning of the calls: active = hit: reporter lowered or raised; inactive = no hit

gene	reagent	firefly reporter light, replicate 1	firefly reporter light, replicate 2	Renilla control light, replicate 1	Renilla control light, replicate 2	call
ncd	1	72508	51102	5.13e5	3.49e5	inactive
CG31924	1	1.09e5	1.20e5	6.57e5	8.65e5	inactive
Pvf1	1	1.17e5	1.38e5	1.01e6	1.16e6	inactive
Pvf1	2					inactive
Pvf1	3					inactive
CG15475	1	1.22e5	1.36e5	1.40e6	1.88e6	inactive
CG15475	2	5.65e5	6.18e5	1.42e6	1.28e6	inactive
PH4alphaSG2	1	1.75e5	2.71e5	2.15e6	3.03e6	inactive
Lcp65Aa	1	1.50e5	1.23e5	1.87e6	1.73e6	inactive
Lcp65Aa	2	2.18e5	2.31e5	4.84e5	8.33e5	inactive
Dh44	1	80386	67262	8436	1.77e5	inactive
Dh44	2	1.87e5	1.06e5	2.79e6	1.94e6	inactive
Pp1alpha-96A	1	2.68e5	2.72e5	3.31e6	3.08e6	inactive
Pp1alpha-96A	2	9.72e5	8.98e5	2.31e6	1.92e6	inactive
Pp1alpha-96A	3	6.99e5	5.30e5	5.63e5	3.46e5	inactive
CG13833	1	1.46e5	1.51e5	2.70e6	2.57e6	inactive
CG3760	1	3.90e5	4.90e5	3.83e6	4.17e6	inactive
CG1835	1	2.27e5	1.77e5	8.67e5	5.25e5	inactive
CG3402	1	1.15e6	8.98e5	1.94e6	1.68e6	inactive
CG4393	1	1.93e5	2.38e5	2.29e6	2.98e6	inactive
CG18233	1	1.97e5	1.78e5	1.92e6	1.80e6	inactive
CG13067	1	2.45e5	2.84e5	2.39e6	1.98e6	inactive
CG43338	1	5.41e5	6.25e5	6.29e5	6.50e5	inactive
Stlk	1	7.94e5	7.19e5	1.56e6	1.44e6	inactive
Stlk	2					inactive
CG14762	1	1.96e5	2.16e5	2.62e5	1.83e5	inactive
CG14762	2	3.04e5	4.78e5	1.79e6	1.58e6	inactive
Rbf2	1	1.67e5	1.74e5	2.74e6	2.93e6	inactive
Cpsf160	1	1.18e6	1.28e6	1.90e6	2.19e6	inactive
GAPsec	1	9.33e5	7.25e5	1.33e6	1.73e6	inactive
GAPsec	2	3.54e5	3.26e5	5.56e5	5.99e5	inactive
CG12496	1	1.22e5	1.22e5	1.83e6	1.47e6	inactive
CG12496	2	3.84e5	6.50e5	1.31e6	1.91e6	inactive
CG1924	1	4.90e5	5.16e5	2.52e6	2.67e6	inactive
CG1924	2	6.98e5	8.17e5	7.06e5	6.75e5	inactive
qkr58E-2	1	1.09e5	1.30e5	1.68e6	1.62e6	inactive
qkr58E-2	2	4.95e5	3.38e5	5.25e5	3.80e5	inactive
CG4751	1	9.08e5	1.27e6	1.62e6	1.69e6	inactive
Tmem43	1	84019	1.16e5	7.41e5	1.04e6	inactive
Tmem43	2	2.79e5	2.57e5	5.10e5	4.02e5	inactive
aPKC	1	2.24e5	1.85e5	6.89e5	5.15e5	inactive
aPKC	2	72846	88529	1.61e6	1.61e6	inactive
aPKC	3	3.60e5	4.63e5	1.27e6	1.45e6	inactive
aPKC	4	3.69e5	3.55e5	1.01e6	1.34e6	inactive
aPKC	5					inactive
Gem2	1	13457	18888	3.22e5	2.16e5	inactive
CG40551 (retired record)	1	5.61e5	5.77e5	3.67e6	3.47e6	inactive
CG13442	1	1.03e5	1.69e5	1.39e6	1.88e6	inactive
CG13442	2	4.32e5	4.04e5	9.82e5	8.75e5	inactive
Ir41a	1	67828	60252	86033	1.06e5	inactive
Ir41a	2	4.38e5	4.47e5	2.81e6	2.82e6	inactive
Marc	1	3.34e5	1.91e5	1.82e6	1.60e6	inactive
CG30389	1	1.22e6	9.35e5	2.82e6	2.50e6	inactive
CG30389	2	1.89e5	2.77e5	1.71e6	1.80e6	inactive
CG30389	3	1.40e5	3.93e5	1.02e5	5.24e5	inactive
ProRS-m	1	1.30e5	83271	1.24e6	8.92e5	inactive
ProRS-m	2	3.81e5	3.42e5	1.11e6	1.22e6	inactive
CG33124	1	81488	39321	3.06e5	2.34e5	inactive
CG42380 + CG42379 + PIG-M + 1 more	1	2.36e5	1.22e5	2.70e5	1.74e5	inactive
CG42380 + CG42379 + PIG-M + 1 more	2	8.18e5	9.38e5	2.42e6	2.45e6	inactive
dah	1	86464	96575	8.24e5	7.59e5	inactive
RpL37-1	1	3.06e5	2.80e5	2.45e6	1.60e6	inactive
RpL37-1	2	4.34e5	3.09e5	1.44e6	1.01e6	inactive
CG10116	1	1.07e6	8.34e5	1.19e6	1.53e6	inactive
CG2604	1	23197	99674	1.16e6	1.59e6	inactive
CG2604	2	5.44e5	5.07e5	1.01e6	9.72e5	inactive
Nup54	1	5.68e5	4.55e5	9.48e5	9.10e5	inactive
Sf3b6	1	2.04e5	3.23e5	2.29e6	3.37e6	inactive
Sf3b6	2	3.19e5	3.74e5	5.38e5	5.35e5	inactive
CG1344	1	1.03e6	7.72e5	1.23e6	1.44e6	active
CG1344	2					inactive
CG1344	3					inactive
CG42807	1	96580	71514	1.79e6	1.79e6	inactive
CG14418	1	9.79e5	1.17e6	1.30e6	1.40e6	inactive

6 successive reagents already listed, for reference:
gene	reagent	firefly reporter light, replicate 1	firefly reporter light, replicate 2	Renilla control light, replicate 1	Renilla control light, replicate 2	call
CG30389	1	1.22e6	9.35e5	2.82e6	2.50e6	inactive
CG30389	2	1.89e5	2.77e5	1.71e6	1.80e6	inactive
CG30389	3	1.40e5	3.93e5	1.02e5	5.24e5	inactive
ProRS-m	1	1.30e5	83271	1.24e6	8.92e5	inactive
ProRS-m	2	3.81e5	3.42e5	1.11e6	1.22e6	inactive
CG33124	1	81488	39321	3.06e5	2.34e5	inactive
